US20100292325A1, “P-MENTHAWE-3-CARBOXYLIC ACID ESTERS TO TREAT AIRWAYS DISEASES” (priority 2007, published 2010)
Some results were stated once for a whole list of compounds, not compound by compound.

Test system: oropharynx (back of the mouth)
Experiment: Bioassay: compound applied by glass rod onto the posterior dorsal tongue, oral sensations noted
Format: in vivo, human
Conditions: higher doses
Experimental: CPS-004 and CPS-030 are liquids at room temperatures. These compounds were tested by placing 0, 2, 5 and 8 mg on a 6-inch glass rod and applying these compounds onto the posterior third of the dorsal surface of the tongue. After depositing the test substance, the subject was instructed to keep the mouth closed and allow the test substance to distribute to the back of the mouth (orpharynx). The presence and duration of sensations from the oral cavity was then noted.

| SMILES | time at which the cooling sensation could still be detected [min] |
| --- | --- |
| CC(C)[C@@H]1CC[C@@H](C)C[C@H]1C(=O)OCCO [CPS-004] | > 30 |
| CC(C)[C@@H]1CC[C@@H](C)C[C@H]1C(=O)OCC(O)CO (some centres unmarked) [CPS-030] | > 30 |
